Results deposited as PubChem BioAssay AID652259 (Drosophila RNAi Screening Center, 2013)

Assay: 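Identify new Wingless signalling regulators in fly cells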 (primary screen)
Cells: Drosophila clone 8 imaginal disc epithelial cells
Reagents: long dsRNA against Drosophila genes
Conditions: pathway stimulated by co-transfected Wingless expression plasmid
Measured: 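Firefly luciferase from a tcf-site Wingless reporter, measured alongside co-transfected Renilla luciferase that tracks transfection; pathway stimulated by a Wingless plasmid; the firefly-to-Renilla ratio is not deposited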
Scale: firefly reporter light: higher = more Wg reporter light, before normalisation; Renilla control light: higher = more transfected or surviving cells
Hit rule: 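Strong candidates differ from their plate mean by at least two out of four per-plate statistical tests; weak candidates meet just one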
Meaning of the calls: active = candidate regulator (raises or lowers reporter); inactive = not a candidate
The deposit covers about 22,000 reagents; this is a random part of those with a known target gene and a result. Over the whole deposit, 233 (1.1%) got an active call. 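Light values are raw, unnormalised plate reads; the ratio scores behind the reporter calls were not deposited.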 Reagents against one gene are numbered here. Names joined by + are all predicted targets of the reagent. The record does not give: the amount of reagent, the time to read-out, the dose of the treatment.

With knock-down of Tsp42A (Tetraspanin 42A) the results were firefly reporter light, replicate 1 = 2965; firefly reporter light, replicate 2 = 6758; Renilla control light, replicate 1 = 764; Renilla control light, replicate 2 = 2251; inactive. For asRNA:CR31144 + RpL3, the entry reads firefly reporter light, replicate 1 = 11404; Renilla control light, replicate 1 = 2712; inactive. For sicily (severe impairment of CI with lengthened youth), the values are firefly reporter light, replicate 1 = 13626; Renilla control light, replicate 1 = 8336; inactive. After knock-down of CG14079, the screen gave firefly reporter light, replicate 1 = 10665; Renilla control light, replicate 1 = 3984; inactive. wds (will die slowly) showed firefly reporter light, replicate 1 = 15521; Renilla control light, replicate 1 = 6802; inactive. in (inturned) gave firefly reporter light, replicate 1 = 11596; Renilla control light, replicate 1 = 4866; inactive.

After knock-down of CG7203, the record shows firefly reporter light, replicate 1 = 4547; firefly reporter light, replicate 2 = 4629; Renilla control light, replicate 1 = 1186; Renilla control light, replicate 2 = 2649; inactive. Silencing of Rh6 (Rhodopsin 6) gave: firefly reporter light, replicate 1 = 11308; Renilla control light, replicate 1 = 3704; inactive. For CG15548, the entry reads firefly reporter light, replicate 1 = 10485; Renilla control light, replicate 1 = 3417; inactive. Silencing of CG6878 gave: firefly reporter light, replicate 1 = 5099; Renilla control light, replicate 1 = 2138; inactive. For CG30495, the values are firefly reporter light, replicate 1 = 1675; firefly reporter light, replicate 2 = 6532; Renilla control light, replicate 1 = 672; Renilla control light, replicate 2 = 2886; inactive. CG31091 scored firefly reporter light, replicate 1 = 11572; Renilla control light, replicate 1 = 12322; inactive.

Against GluRIIB (Glutamate receptor IIB) the deposit lists firefly reporter light, replicate 1 = 3432; firefly reporter light, replicate 2 = 6188; Renilla control light, replicate 1 = 811; Renilla control light, replicate 2 = 1864; inactive. With knock-down of CG32485, the screen gave firefly reporter light, replicate 1 = 5.53e5; firefly reporter light, replicate 2 = 5.60e5; Renilla control light, replicate 1 = 2.26e5; Renilla control light, replicate 2 = 1.84e5; inactive. Depletion of CG32651 gave: firefly reporter light, replicate 1 = 2819; Renilla control light, replicate 1 = 1259; inactive. Depletion of Ppt1 (Palmitoyl-protein thioesterase 1) gave: firefly reporter light, replicate 1 = 16298; Renilla control light, replicate 1 = 7309; inactive. After knock-down of CG11050 the results were firefly reporter light, replicate 1 = 14417; Renilla control light, replicate 1 = 3157; inactive. After knock-down of h-cup (heineken-cup), the record shows firefly reporter light, replicate 1 = 4890; Renilla control light, replicate 1 = 1621; inactive.

Knock-down of RpS14a (Ribosomal protein S14a) gave: firefly reporter light, replicate 1 = 13985; Renilla control light, replicate 1 = 8780; inactive. Against CG8360 the deposit lists firefly reporter light, replicate 1 = 3427; firefly reporter light, replicate 2 = 8681; Renilla control light, replicate 1 = 1555; Renilla control light, replicate 2 = 4839; inactive. Pi4KIIalpha (Phosphatidylinositol 4-kinase II alpha) #1 showed firefly reporter light, replicate 1 = 7460; Renilla control light, replicate 1 = 2027; inactive. Depletion of Pi4KIIalpha (Phosphatidylinositol 4-kinase II alpha) #2 gave: firefly reporter light, replicate 1 = 12467; Renilla control light, replicate 1 = 2045; inactive. CG3939 gave firefly reporter light, replicate 1 = 21882; Renilla control light, replicate 1 = 11613; inactive. Depletion of Rac2 resulted in: firefly reporter light, replicate 1 = 1154; firefly reporter light, replicate 2 = 3929; Renilla control light, replicate 1 = 1091; Renilla control light, replicate 2 = 2276; inactive.

Knock-down of CG33270 resulted in: firefly reporter light, replicate 1 = 5053; Renilla control light, replicate 1 = 2688; inactive.

Already shown: entries from further up.
CG30495 → firefly reporter light, replicate 1: 1675; firefly reporter light, replicate 2: 6532; Renilla control light, replicate 1: 672; Renilla control light, replicate 2: 2886; outcome: inactive
CG31091 → firefly reporter light, replicate 1: 11572; Renilla control light, replicate 1: 12322; outcome: inactive
GluRIIB (Glutamate receptor IIB) → firefly reporter light, replicate 1: 3432; firefly reporter light, replicate 2: 6188; Renilla control light, replicate 1: 811; Renilla control light, replicate 2: 1864; outcome: inactive
